Data as given in PubChem BioAssay AID504804 (Drosophila RNAi Screening Center, 2011).
In all, the deposit lists about 19,000 reagents; this is a random part of those that have a named target and a result. Of all reagents, 47 (0.25%) were called active. 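Signals are raw, not normalised; exact z-scores behind calls not deposited; actives needed confirmation, so some wells reaching 2 SD are inactive.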 The numbers tell different reagents against one gene apart. Names joined by + are all predicted targets of the reagent.

- Screen: 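dsRNAs that improve Kc cell survival under doxorubicin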 (primary screen)
- Cell system: Drosophila Kc cells
- Reagents: long dsRNA against Drosophila genes, 0.5 µg dsRNA per well
- Time to read-out: 96 h (48 h knock-down, then 48 h drug)
- Challenge: doxorubicin 5 µg/ml for 48 h, added 48 h after dsRNA
- Detection: 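Viability measured as cellular ATP by luminescence after 48 h knock-down then 48 h doxorubicin at 5 µg/ml; unnormalised plate counts for each replicate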
- Scale: raw ATP luminescence: higher = more viable cells, protection from doxorubicin
- Rule for the call: 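z-score of 2 or more over plate mean in both duplicates, retained only when retests and separate dsRNAs confirm the protection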

Mkp + CG34140 gave raw ATP luminescence, replicate 1 = 54180; raw ATP luminescence, replicate 2 = 61127; inactive.
mh (maternal haploid) scored raw ATP luminescence, replicate 1 = 2.90e5; raw ATP luminescence, replicate 2 = 3.08e5; inactive.
Smyd3 (SET and MYND domain containing, class 3) scored raw ATP luminescence, replicate 1 = 63720; raw ATP luminescence, replicate 2 = 45770; inactive.
Against Traf4 (TNF-receptor-associated factor 4) #1, the values are raw ATP luminescence, replicate 1 = 18310; raw ATP luminescence, replicate 2 = 18180; inactive.
Traf4 (TNF-receptor-associated factor 4) #2 showed raw ATP luminescence, replicate 1 = 98243; raw ATP luminescence, replicate 2 = 77800; inactive.
CG7264 showed raw ATP luminescence, replicate 1 = 82310; raw ATP luminescence, replicate 2 = 80593; inactive.
Against CG42755 (retired record) #1, the entry reads raw ATP luminescence, replicate 1 = 1.35e5; raw ATP luminescence, replicate 2 = 1.59e5; inactive.
CG42755 (retired record) #2 showed raw ATP luminescence, replicate 1 = 1.44e5; raw ATP luminescence, replicate 2 = 1.95e5; inactive.
After knock-down of Reg-5 (Rhythmically expressed gene 5), the record shows raw ATP luminescence, replicate 1 = 73253; raw ATP luminescence, replicate 2 = 54353; inactive.
CG7953 scored raw ATP luminescence, replicate 1 = 84433; raw ATP luminescence, replicate 2 = 62563; inactive.
With knock-down of CG10663, the screen gave raw ATP luminescence, replicate 1 = 52053; raw ATP luminescence, replicate 2 = 58673; inactive.

Only “raw ATP luminescence, replicate 2”, for 3 of the entries above:
Traf4 (TNF-receptor-associated factor 4) #1: 18180
Traf4 (TNF-receptor-associated factor 4) #2: 77800
CG7264: 80593

More results follow:
Sgt1 (suppressor-of-G2-allele-of-skp1) showed raw ATP luminescence, replicate 1 = 56997; raw ATP luminescence, replicate 2 = 48020; inactive.
ArfGAP3 (ADP-ribosylation factor GTPase activating protein 3) showed raw ATP luminescence, replicate 1 = 37870; raw ATP luminescence, replicate 2 = 23813; inactive.
For Phax (Phosphorylated adaptor for RNA export), the values are raw ATP luminescence, replicate 1 = 73290; raw ATP luminescence, replicate 2 = 92937; inactive.
MED28 (Mediator complex subunit 28) scored raw ATP luminescence, replicate 1 = 51590; raw ATP luminescence, replicate 2 = 51690; inactive.
CG5302 (retired record) #1 scored raw ATP luminescence, replicate 1 = 69150; raw ATP luminescence, replicate 2 = 61110; inactive.
Against CG5302 (retired record) #2 the deposit lists raw ATP luminescence, replicate 1 = 76230; raw ATP luminescence, replicate 2 = 61450; inactive.
CG14177 (retired record) scored raw ATP luminescence, replicate 1 = 95193; raw ATP luminescence, replicate 2 = 90033; inactive.
After knock-down of CG7156 the results were raw ATP luminescence, replicate 1 = 35520; raw ATP luminescence, replicate 2 = 45153; inactive.
Naa15-16 (N(alpha)-acetyltransferase 15/16) scored raw ATP luminescence, replicate 1 = 1.69e5; raw ATP luminescence, replicate 2 = 1.67e5; inactive.
Depletion of CG7509 resulted in: raw ATP luminescence, replicate 1 = 38957; raw ATP luminescence, replicate 2 = 35097; inactive.
GC2 scored raw ATP luminescence, replicate 1 = 53083; raw ATP luminescence, replicate 2 = 50500; inactive.
Depletion of CG15024 came out at: raw ATP luminescence, replicate 1 = 79733; raw ATP luminescence, replicate 2 = 77673; inactive.
For Prp8 (pre-mRNA processing factor 8), the entry reads raw ATP luminescence, replicate 1 = 73637; raw ATP luminescence, replicate 2 = 50743; inactive.
Against CG3776 the deposit lists raw ATP luminescence, replicate 1 = 33443; raw ATP luminescence, replicate 2 = 35870; inactive.
Depletion of RpL10Ab (Ribosomal protein L10Ab) came out at: raw ATP luminescence, replicate 1 = 58150; raw ATP luminescence, replicate 2 = 59403; inactive.
With knock-down of CG42557 + CG42558 the results were raw ATP luminescence, replicate 1 = 2.12e5; raw ATP luminescence, replicate 2 = 2.25e5; inactive.
Ugt36E1 (UDP-glycosyltransferase family 36 member E1) showed raw ATP luminescence, replicate 1 = 65793; raw ATP luminescence, replicate 2 = 54963; inactive.
